No constants are given. Whether binding was seen depends on the method and setting. Binding seen in cells or lysates may run through a third protein.

This note sets out measurements from PMC6582535.

The target of the assay is T1, Cholecystokinin type B receptor (mouse (endogenous in DRG)) (UniProt P56481).
T1 sequence: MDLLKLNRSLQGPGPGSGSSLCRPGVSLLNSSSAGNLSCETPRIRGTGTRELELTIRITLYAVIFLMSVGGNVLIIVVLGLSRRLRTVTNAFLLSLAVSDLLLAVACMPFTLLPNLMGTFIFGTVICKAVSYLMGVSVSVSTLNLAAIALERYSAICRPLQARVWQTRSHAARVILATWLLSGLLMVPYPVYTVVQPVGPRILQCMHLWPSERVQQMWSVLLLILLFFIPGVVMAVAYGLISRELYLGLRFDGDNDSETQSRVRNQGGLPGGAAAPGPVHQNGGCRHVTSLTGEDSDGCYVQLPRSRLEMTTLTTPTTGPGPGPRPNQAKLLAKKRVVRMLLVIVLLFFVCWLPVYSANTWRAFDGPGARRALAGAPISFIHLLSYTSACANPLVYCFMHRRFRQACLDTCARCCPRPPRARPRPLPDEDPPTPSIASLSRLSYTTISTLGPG
Put plainly: co-IP; mouse DRG extract (500 μg protein; Tris 20 mM pH 7.4, NaCl 150 mM, EDTA 1 mM, 0.5% Triton, DTT 1 mM) incubated at 4 °C with goat polyclonal anti-CCK-BR, Protein A-Sepharose beads; blots for Gαo or Gαi.

Take “G-protein Gαi subunit (mouse (endogenous in DRG))”: the binding result is “no binding”.
